From article PMC3679059
No constants are given. Whether binding was seen depends on the method and setting. In cells and extracts the contact can be indirect. Binding calls can cover weak binding; strength is not graded here. Sequences can lack the tags named with a protein.

Columns and labels:
[1] = molecular target: CCI1-GFP (Arabidopsis thaliana); assay: co-IP; proteins co-expressed in the same N. benthamiana leaves; total membrane fraction solubilised with 1% triton X-100; IP with anti-GFP and protein A agarose at 4°C, blot with anti-FLAG
[2] = molecular target: GST-CCI2 (Arabidopsis thaliana); assay: pull-down; soluble sonicates of E. coli with GST-CCI1 or GST-CCI2 and CLV1 KD-GFP combined, glutathione sepharose 30 minutes at room temperature, washed 3 times, eluted, blot with anti-GFP (ab6556); the legend says purified proteins, immunoprecipitated with anti-GST antibodies
[3] = molecular target: GST-CCI1 (Arabidopsis thaliana); assay: as above

| Binder | binding [1] | binding [2] | binding [3] |
| --- | --- | --- | --- |
| BAM1-FLAG (full-length) (receptor, UniProt O49545 20-1003) SRPISEFRALLSLKTSLTGAGDDKNSPLSSWKVSTSFCTWIGVTCDVSRRHVTSLDLSGLNLSGTLSPDVSHLRLLQNLSLAENLISGPIPPEISSLSGLRHLNLSNNVFNGSFPDEISSGLVNLRVLDVYNNNLTGDLPVSVTNLTQLRHLHLGGNYFAGKIPPSYGSWPVIEYLAVSGNELVGKIPPEIGNLTTLRELYIGYYNAFEDGLPPEIGNLSELVRFDGANCGLTGEIPPEIGKLQKLDTLFLQVNVFSGPLTWELGTLSSLKSMDLSNNMFTGEIPASFAELKNLTLLNLFRNKLHGEIPEFIGDLPELEVLQLWENNFTGSIPQKLGENGKLNLVDLSSNKLTGTLPPNMCSGNKLETLITLGNFLFGSIPDSLGKCESLTRIRMGENFLNGSIPKGLFGLPKLTQVELQDNYLSGELPVAGGVSVNLGQISLSNNQLSGPLPPAIGNFTGVQKLLLDGNKFQGPIPSEVGKLQQLSKIDFSHNLFSGRIAPEISRCKLLTFVDLSRNELSGEIPNEITAMKILNYLNLSRNHLVGSIPGSISSMQSLTSLDFSYNNLSGLVPGTGQFSYFNYTSFLGNPDLCGPYLGPCKDGVAKGGHQSHSKGPLSASMKLLLVLGLLVCSIAFAVVAIIKARSLKKASESRAWRLTAFQRLDFTCDDVLDSLKEDNIIGKGGAGIVYKGVMPNGDLVAVKRLAAMSRGSSHDHGFNAEIQTLGRIRHRHIVRLLGFCSNHETNLLVYEYMPNGSLGEVLHGKKGGHLHWDTRYKIALEAAKGLCYLHHDCSPLIVHRDVKSNNILLDSNFEAHVADFGLAKFLQDSGTSECMSAIAGSYGYIAPEYAYTLKVDEKSDVYSFGVVLLELVTGRKPVGEFGDGVDIVQWVRKMTDSNKDSVLKVLDPRLSSIPIHEVTHVFYVAMLCVEEQAVERPTMREVVQILTEIPKLPPSKDQPMTESAPESELSPKSGVQSPPDLLNL | binds |  |  |
| CLV1-FLAG (full-length) (receptor, UniProt Q9SYQ8 25-980) YTDMEVLLNLKSSMIGPKGHGLHDWIHSSSPDAHCSFSGVSCDDDARVISLNVSFTPLFGTISPEIGMLTHLVNLTLAANNFTGELPLEMKSLTSLKVLNISNNGNLTGTFPGEILKAMVDLEVLDTYNNNFNGKLPPEMSELKKLKYLSFGGNFFSGEIPESYGDIQSLEYLGLNGAGLSGKSPAFLSRLKNLREMYIGYYNSYTGGVPPEFGGLTKLEILDMASCTLTGEIPTSLSNLKHLHTLFLHINNLTGHIPPELSGLVSLKSLDLSINQLTGEIPQSFINLGNITLINLFRNNLYGQIPEAIGELPKLEVFEVWENNFTLQLPANLGRNGNLIKLDVSDNHLTGLIPKDLCRGEKLEMLILSNNFFFGPIPEELGKCKSLTKIRIVKNLLNGTVPAGLFNLPLVTIIELTDNFFSGELPVTMSGDVLDQIYLSNNWFSGEIPPAIGNFPNLQTLFLDRNRFRGNIPREIFELKHLSRINTSANNITGGIPDSISRCSTLISVDLSRNRINGEIPKGINNVKNLGTLNISGNQLTGSIPTGIGNMTSLTTLDLSFNDLSGRVPLGGQFLVFNETSFAGNTYLCLPHRVSCPTRPGQTSDHNHTALFSPSRIVITVIAAITGLILISVAIRQMNKKKNQKSLAWKLTAFQKLDFKSEDVLECLKEENIIGKGGAGIVYRGSMPNNVDVAIKRLVGRGTGRSDHGFTAEIQTLGRIRHRHIVRLLGYVANKDTNLLLYEYMPNGSLGELLHGSKGGHLQWETRHRVAVEAAKGLCYLHHDCSPLILHRDVKSNNILLDSDFEAHVADFGLAKFLVDGAASECMSSIAGSYGYIAPEYAYTLKVDEKSDVYSFGVVLLELIAGKKPVGEFGEGVDIVRWVRNTEEEITQPSDAAIVVAIVDPRLTGYPLTSVIHVFKIAMMCVEEEAAARPTMREVVHMLTNPPKSVANLIAF | binds |  |  |
| CLV1KD-GFP (domain or fragment, UniProt Q9SYQ8 692-968) LKEENIIGKGGAGIVYRGSMPNNVDVAIKRLVGRGTGRSDHGFTAEIQTLGRIRHRHIVRLLGYVANKDTNLLLYEYMPNGSLGELLHGSKGGHLQWETRHRVAVEAAKGLCYLHHDCSPLILHRDVKSNNILLDSDFEAHVADFGLAKFLVDGAASECMSSIAGSYGYIAPEYAYTLKVDEKSDVYSFGVVLLELIAGKKPVGEFGEGVDIVRWVRNTEEEITQPSDAAIVVAIVDPRLTGYPLTSVIHVFKIAMMCVEEEAAARPTMREVVHMLT |  | binds | binds |
